No constants are given. Whether binding was seen depends on the method and setting. Binding seen in cells or lysates may run through a third protein. Some binding calls cover weakened binding; strength is not graded here. Tags and fused reporters may be left off the sequences shown.
Columns and labels:
[1] = target: T1, FLAG-tagged mouse TRAF3 (mouse) (UniProt Q60803); assay: GST pull-down from 293 cell lysate, anti-FLAG immunoblot (FIG. 2A)
T1 sequence (looked up): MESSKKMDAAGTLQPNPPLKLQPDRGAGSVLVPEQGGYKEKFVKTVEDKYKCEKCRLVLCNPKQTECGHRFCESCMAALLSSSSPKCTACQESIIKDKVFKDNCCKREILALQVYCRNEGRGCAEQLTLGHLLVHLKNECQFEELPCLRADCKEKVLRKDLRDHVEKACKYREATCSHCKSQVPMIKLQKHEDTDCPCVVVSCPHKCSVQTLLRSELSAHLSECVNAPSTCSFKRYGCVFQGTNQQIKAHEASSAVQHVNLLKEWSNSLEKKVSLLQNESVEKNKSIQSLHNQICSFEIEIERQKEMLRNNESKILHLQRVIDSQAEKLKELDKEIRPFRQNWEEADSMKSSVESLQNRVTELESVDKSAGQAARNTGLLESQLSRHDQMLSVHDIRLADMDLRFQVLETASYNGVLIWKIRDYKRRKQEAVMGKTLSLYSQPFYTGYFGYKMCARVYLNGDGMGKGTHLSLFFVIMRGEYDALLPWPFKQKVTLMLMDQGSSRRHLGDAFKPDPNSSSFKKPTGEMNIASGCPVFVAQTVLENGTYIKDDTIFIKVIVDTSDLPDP

[2] = target: T2, FLAG-tagged mouse TRAF2 (mouse) (UniProt P39429); assay: as above
T2 sequence (looked up): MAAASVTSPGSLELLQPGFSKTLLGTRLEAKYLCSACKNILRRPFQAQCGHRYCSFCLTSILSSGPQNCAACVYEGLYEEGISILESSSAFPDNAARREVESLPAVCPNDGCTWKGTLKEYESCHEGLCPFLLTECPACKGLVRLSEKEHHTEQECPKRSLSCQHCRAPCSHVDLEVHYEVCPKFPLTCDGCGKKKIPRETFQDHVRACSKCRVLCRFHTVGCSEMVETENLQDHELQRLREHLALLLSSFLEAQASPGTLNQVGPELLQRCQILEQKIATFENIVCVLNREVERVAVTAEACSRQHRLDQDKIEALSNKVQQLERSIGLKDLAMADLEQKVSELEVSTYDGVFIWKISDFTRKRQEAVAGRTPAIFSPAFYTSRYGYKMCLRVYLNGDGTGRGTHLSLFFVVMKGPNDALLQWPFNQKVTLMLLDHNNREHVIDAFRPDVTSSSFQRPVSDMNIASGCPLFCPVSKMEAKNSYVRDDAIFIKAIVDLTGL

binding [1]: binds | binding [2]: binds
Substance: GST-clone 10 (from UniProt Q61214 284-763)
